Laboratory results: patent publication EP4652202A1
Results are given in words; binding and its absence hold for the method and conditions named. Some binding calls cover weakened binding; strength is not graded here.

Sequences of proteins named here, by UniProt entry; tags and fusion partners are left off. Residues count along the entry.
UniProt P78324, residues 31-369: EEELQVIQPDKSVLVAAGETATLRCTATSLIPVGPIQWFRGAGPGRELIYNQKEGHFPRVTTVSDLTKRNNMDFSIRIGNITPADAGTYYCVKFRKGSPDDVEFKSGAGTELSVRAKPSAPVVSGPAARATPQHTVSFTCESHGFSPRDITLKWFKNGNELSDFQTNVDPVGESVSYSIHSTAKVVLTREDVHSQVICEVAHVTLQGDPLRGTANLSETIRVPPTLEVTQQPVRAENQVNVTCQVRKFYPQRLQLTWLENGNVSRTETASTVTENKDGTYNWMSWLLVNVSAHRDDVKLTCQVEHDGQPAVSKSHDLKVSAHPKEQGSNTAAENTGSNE

Target: Biotinylated human SIRPα extracellular domain recombinant protein (human) (UniProt P78324)
Assay: flow cytometry of yeast-displayed scFv with 1nM bio-SIRPα in 1M guanidine, compared with the wildtype 2534m1V3 control

binding: binds
B1: Clone 201 (anti-SIRPα scFv mutant of 2534m1V3) (scFv)
scFv: EIVLTQSPATLSLSPGERATLSCRASQSVSSSYLYWYQQKPGQAPKLLIYSASNRASGIPARFSGSGSGTDYTLTISSLEPEDFAVYYCHQWSSYPYTFGQGTKLEIKGGGGSGGGGSGGGGSGGGGSEVQLVQSGAEVKKPGATVKISCKVSGFNIKDYYMHWVRQAPGKGLEWIGRVDPEDAETKYAEKFQGRVTITADTSTDTAYMELSSLRSEDTAVYYCDRGLVYWGQGTLVTVSS
